Results as given in article PMC12040169 (PLOS Biology, 2025).
This is one part of the list.

What follows are molecules tested on T1, CTL2-GFP (C. trachomatis L2/434/Bu, GFP-expressing). Details: bulk GFP, single well; 28.5 h, 10 µM; inhibitor.
T1 construct: L2/434/Bu, GFP-expressing
Set-up: species or system HeLa; Intracellular C. trachomatis growth in HeLa cells, bulk GFP fluorescence relative to DMSO
In the case of `COc1ccc(C(=O)Nc2cncc(OC3CCNCC3)n2)cc1` [CBK036370T], the “% of control remaining” value was 126.712%. For `O=C(CC(CN1CCN(c2ccccn2)CC1)C(=O)O)NC1CCCCC1` (stereo not drawn) [CBK286812], the “% of control remaining” value was 100%. With `Cc1cc(C)nc(Nc2n[nH]c(-c3cccnc3)n2)n1` [CBK267120] the “% of control remaining” value was 134.228%. For `O=C(O)c1ccc(Br)c(S(=O)(=O)NCc2ccccc2)c1` [CBK263202], the “% of control remaining” value was 112.166%. In the case of `CN(C)CCNC(=O)CSc1ccccc1` [CBK268426], the “% of control remaining” value was 80.3604%. `CC(CO)(CO)NCc1ccc(-c2ccccc2)cc1` [CBK268325C] was tested, and the “% of control remaining” value was 117.292%. For `COCCCNCCn1cnc2c(N)ncnc21` [CBK277059], the “% of control remaining” value was 145.654%. `CCCCN(C=O)c1c(CC)nc2ccc(C(=O)N3CCN(C)CC3)cn12` [CBK145707] was tested, and the “% of control remaining” value was 125.297%. With `CCOc1ccc(CC(=O)NN2CCOCC2)cc1OCC` [CBK268150] the “% of control remaining” value was 108.2%. In the case of `O=c1[nH]nc(SCc2ccccc2Cl)c(=S)[nH]1` [CBK027795], the “% of control remaining” value was 88.9545%. `Cc1nsc(NCc2ccccc2CN2CCCC2CO)c1C#N` (stereo not drawn) [CBK304124] was tested, and the “% of control remaining” value was 121.285%. `CCc1ccc(C(=O)Nc2ccc(NC(C)=O)cc2C(F)(F)F)cc1` [CBK295202] was tested, and the “% of control remaining” value was 152.899%. In the case of `O=C(c1ccsc1NS(=O)(=O)/C=C/c1ccccc1)N1CCOCC1` [CBK042285], the “% of control remaining” value was 124.033%. In the case of `N#CCCn1cc(C(=O)N2CCCCC2)c(-c2ccc(F)cc2)n1` [CBK306191], the “% of control remaining” value was 141.178%. In the case of `Cc1cc(C(C)(C)C)cc(C)c1COC(=O)c1ccncc1` [CBK296995], the “% of control remaining” value was 72.8308%. With `Cc1nccn1CCC(=O)Nc1ccccc1Oc1ccc(F)cc1` [CBK281473] the “% of control remaining” value was 139.57%. `O=[N+]([O-])c1cccc(S(=O)(=O)NCCOc2cccc3cccnc23)c1` [CBK268489] was tested, and the “% of control remaining” value was 113.913%. In the case of `O=S(=O)(NCCCN1CCOCC1)c1cc(C(F)(F)F)cc(C(F)(F)F)c1` [CBK005796], the “% of control remaining” value was 112.048%. `CNC(=O)c1cc(-c2cccc(Cl)c2)oc1CC(=O)c1ccc(CN2CCCC2)cc1` [CBK047558] was tested, and the “% of control remaining” value was 135.577%. For `O=C(NC(NCc1ccc2c(c1)OCO2)(C(F)(F)F)C(F)(F)F)c1cccnc1` [CBK074397], the “% of control remaining” value was 104.021%. With `O=C(O)c1ccc(N2C(=O)CC(N3CCN(CCO)CC3)C2=O)cc1` (stereo not drawn) [CBK271638] the “% of control remaining” value was 114.971%. With `Cc1nc(COc2ccc(C(=O)Nc3ccc(C(=O)O)cc3C)cc2)cs1` [CBK295360] the “% of control remaining” value was 136.495%. With `CCn1cc(-c2cncn2CCCOc2cccc(C)c2)cn1` [CBK281760] the “% of control remaining” value was 175.835%. In the case of `O=C(O)C1(NS(=O)(=O)c2ccc(F)c(Cl)c2)CCCCC1` [CBK267276], the “% of control remaining” value was 127.393%. For `CN(CCN1CCCCC1)C(=O)Cn1cnc2ccccc21` [CBK281515], the “% of control remaining” value was 128.47%. For `O=C(Cn1cccc(C(=O)Nc2cc(F)ccc2N2CCCC2)c1=O)NC1CCCCC1` [CBK286008], the “% of control remaining” value was 114.928%. `O=C1COc2ccccc2C/C=C/CC2(CCCN(C(=O)CCN3CCCC3)C2)CN1` (stereo not drawn) [CBK292136] was tested, and the “% of control remaining” value was 149.171%. For `Cc1ccc(NC(=S)NC(=O)Cc2ccccc2)c(O)c1` [CBK264337], the “% of control remaining” value was 108.834%. In the case of `Cc1cc(C)n(C(=O)c2ccc([N+](=O)[O-])cc2N)n1` [CBK266491], the “% of control remaining” value was 153.502%. With `Oc1ccccc1-c1cc(-c2ccccc2)c2c(ccc3ncccc32)n1` [CBK261276] the “% of control remaining” value was 117.665%. With `Cc1c(Cl)c([N+](=O)[O-])nn1CCCC(=O)Nc1sc2c(c1C#N)CCC(C(C)(C)C)C2` (stereo not drawn) [CBK269111] the “% of control remaining” value was 104.333%. For `CC(C)(C)NC(=O)C[C@@H]1CCNC[C@@H]1Cc1cc(-c2ccccc2)on1` [CBK289145], the “% of control remaining” value was 114.3%. With `Cc1csc(C(C)NC(=O)NC2CCCN(c3ccn(C)n3)C2=O)n1` (stereo not drawn) [CBK304426] the “% of control remaining” value was 103.628%. For `Nc1nonc1-n1nncc1CN1CCCCC1` [CBK307045], the “% of control remaining” value was 113.13%. In the case of `O=C(Nc1ccccc1-n1cccc1)C1Cc2c([nH]c3ccccc23)C2(CCN(Cc3ccccc3)C2)N1` (stereo not drawn) [CBK059395], the “% of control remaining” value was 100%. For `CCN(Cc1ccccn1)C(=O)NC(C)c1cccc(NC(C)=O)c1` (stereo not drawn) [CBK305380], the “% of control remaining” value was 80.0347%. In the case of `O=C(O)c1ccccc1-c1ccccc1C(=O)Nc1cccc(-c2nc3ccccc3o2)c1` [CBK262767], the “% of control remaining” value was 111.977%. With `COc1ccc(C)cc1C1(CNC(=O)C2CC(O)CN2)CCOCC1` (stereo not drawn) [CBK304162] the “% of control remaining” value was 123.011%. `Cc1nnc(NC(=O)Cc2ccc(F)cc2)s1` [CBK287360] was tested, and the “% of control remaining” value was 105.586%.
